Common to all, as to test: co-IP; NIH 3T3 cells transfected with HA/FLAG-tagged E7 plasmids, harvested 48 hr post-transfection in EBC buffer (50mM Tris-Cl pH 8.0, 150mM NaCl, 0.5% NP-40, 0.5mM EDTA); anti-HA agarose beads; 3 mg lysate per IP; western blot for PTPN14, pRb, FLAG
In general terms: Immunoblotting shows a protein as a band on a membrane.

Experiment [1] deals with C-terminally HA/FLAG epitope-tagged MmuPV1 E7 (murine papillomavirus (MmuPV1)).
The target in experiment [2] is N-terminally HA/FLAG epitope-tagged MmuPV1 E7 (murine papillomavirus (MmuPV1)).
For experiment [3], the target named is C-terminally tagged MmuPV1 E7^K81S (murine papillomavirus (MmuPV1)).
For experiment [4], the target named is N-terminally tagged MmuPV1 E7^K81S (murine papillomavirus (MmuPV1)).

These are yes or no findings as the source states them, for the method shown. In cells and extracts the contact can be indirect. A result given as binding can be weak or reduced; the word gives no strength.

B1: Protein Tyrosine Phosphatase Non-Receptor Type 14 (PTPN14) (protein, UniProt Q62130 1-1189)
chain: MPFGLKLRRTRRYNVLSKNCFVTRIRLLDSNVIECTLSVESTGQECLEAVAQRLELRETHYFGLWFLSKSQQARWVELEKPLKKHLDKFANEPLLFFGVMFYVPNVSRLQQEATRYQYYLQVKKDVLEGRLRCSLEQVIRLAGLAVQADFGDYNQFDSQEFLREYVLFPMDLAMEEAALEELTQKVAQEHKAHSGILPAEAELMYINEVERLDGFGQEIFPVKDSHGNSVHLGIFFMGIFVRNRVGRQAVIYRWNDIGSVTHSKAAILLELIDKEETALFHTDDIENAKYISRLFTTRHKFYKQNKICTEQSNSPPPIRRQPTWSRSSLPRQQPYILPPMHVQCSEHYSETHTSQDSIFPGNEEALYCRSHNSLDLNYLNGTVTNGSVCSVHSVNSLSCSQSFIQASPVSSNLSIPGSDIMRADYIPSHRHSTIIVPSYRPTPDYETVMRQMKRGLMHADSQSRSLRNLNIINTHAYNQPEELVYSQPEMRERHPYTVPYAHQGCYGHKLVSPSDQMNPQNCAMPIKPGASSISHTVSTPELANMQLQGAQHYSTAHMLKNYLFRPPPPYPRPRPATSTPDLASHRHKYVSGSSPDLVTRKVQLSVKTFQEDSSPVVHQSLQEVSEPLTATKHHGGGGGTVNKRHSLEVMNSMVRGMEAMTLKSLNIPMARRNTLREQGPSEETGGHEVHGLPQYHHKKTFSDATMLIHSSESEEEEETLEAAPQVPVLREKVEYSAQLQAALARIPNRPPPEYPGPRKSVSNGALRQDQGTPLPAMARCRVLRHGPSKALSVSRAEQLAVNGASLGPSISEPDLTSVKERVKKEPVKERPVSEMFSLEDSIIEREMMIRNLEKQKMTGPQAQKRPLMLAALNGLSVARVSGREDGHHDATRVPIDERLRALKKKLEDGMVFTEYEQIPNKKANGVFSTATLPENAERSRIREVVPYEENRVELIPTKENNTGYINASHIKVVVGGSEWHYIATQGPLPHTCHDFWQMVWEQGVNVIAMVTAEEEGGRTKSHRYWPKLGSKHSSATYGKFKVTTKFRTDSGCYATTGLKVKHLLSGQERTVWHLQYTDWPHHGCPEDVQGFLSYLEEIQSVRRHTNSVLEGIRTRHPPIVVHCSAGVGRTGVVILSELMIYCLEHNEKVEVPTMLRFLREQRMFMIQTIAQYKFVYQVLVQFLQNSRLI
B1: the binding entry in experiment [1] and in experiment [2] was “binds” each time.

B2: retinoblastoma tumor suppressor (pRB) (protein, UniProt P13405 1-921)
chain: MPPKAPRRAAAAEPPPPPPPPPREDDPAQDSGPEELPLARLEFEEIEEPEFIALCQKLKVPDHVRERAWLTWEKVSSVDGILEGYIQKKKELWGICIFIAAVDLDEMPFTFTELQKSIETSVYKFFDLLKEIDTSTKVDNAMSRLLKKYNVLCALYSKLERTCELIYLTQPSSALSTEINSMLVLKISWITFLLAKGEVLQMEDDLVISFQLMLCVVDYFIKFSPPALLREPYKTAAIPINGSPRTPRRGQNRSARIAKQLENDTRIIEVLCKEHECNIDEVKNVYFKNFIPFINSLGIVSSNGLPEVESLSKRYEEVYLKNKDLDARLFLDHDKTLQTDPIDSFETERTPRKNNPDEEANVVTPHTPVRTVMNTIQQLMVILNSASDQPSENLISYFNNCTVNPKENILKRVKDVGHIFKEKFANAVGQGCVDIGVQRYKLGVRLYYRVMESMLKSEEERLSIQNFSKLLNDNIFHMSLLACALEVVMATYSRSTLQHLDSGTDLSFPWILNVLNLKAFDFYKVIESFIKVEANLTREMIKHLERCEHRIMESLAWLSDSPLFDLIKQSKDGEGPDNLEPACPLSLPLQGNHTAADMYLSPLRSPKKRTSTTRVNSAANTETQAASAFHTQKPLKSTSLALFYKKVYRLAYLRLNTLCARLLSDHPELEHIIWTLFQHTLQNEYELMRDRHLDQIMMCSMYGICKVKNIDLKFKIIVTAYKDLPHAAQETFKRVLIREEEFDSIIVFYNSVFMQRLKTNILQYASTRPPTLSPIPHIPRSPYKFSSSPLRIPGGNIYISPLKSPYKISEGLPTPTKMTPRSRILVSIGESFGTSEKFQKINQMVCNSDRVLKRSAEGGNPPKPLKKLRFDIEGADEADGSKHLPAESKFQQKLAEMTSTRTRMQKQRMNESKDVSNKEEK
In the case of B2, the binding entry in experiment [3] and in experiment [4] was “binds” in each case.

(Values after article PMC10085053.)
